Test results as given in US20240270741A1 (Cogent Biosciences, Inc., priority 2023, published 2024).

Protein sequences, listed by entry. Tags and fused reporters are not part of them. Residues count along the entry.
UniProt P21802, 399-821 limits assumed: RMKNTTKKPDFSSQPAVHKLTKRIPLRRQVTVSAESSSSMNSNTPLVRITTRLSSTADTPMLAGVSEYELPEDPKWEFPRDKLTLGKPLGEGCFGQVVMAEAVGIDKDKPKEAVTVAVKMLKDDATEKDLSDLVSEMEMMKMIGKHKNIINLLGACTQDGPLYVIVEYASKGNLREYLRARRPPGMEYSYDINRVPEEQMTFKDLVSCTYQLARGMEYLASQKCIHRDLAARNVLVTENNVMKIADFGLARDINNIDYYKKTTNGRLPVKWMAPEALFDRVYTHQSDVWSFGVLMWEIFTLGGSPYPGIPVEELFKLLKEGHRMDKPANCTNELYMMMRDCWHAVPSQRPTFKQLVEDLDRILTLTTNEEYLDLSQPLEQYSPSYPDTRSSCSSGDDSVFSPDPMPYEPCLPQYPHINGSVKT

molecular target: FGFR2 (Homo sapiens, UniProt P21802); test: FGFR wild type enzyme assay (HTRF KinEASE-TK), FGFR2; conditions: read-out: Enz FGFR2

Row | Compound | IC50 [nM]
1 | COC(=O)N1CCC[C@H](n2cc(-c3cc(Sc4ccc(F)cc4C#N)c4c(C#N)cnn4c3)c(C)n2)C1 | 11
2 | COC(=O)N1CCC[C@H](n2cc(-c3cc(Sc4ccccc4C#N)c4c(C#N)cnn4c3)c(C)n2)C1 | 5
3 | CC(=O)N1CCC[C@H](n2cc(-c3cc(Sc4ccccc4C#N)c4c(C#N)cnn4c3)c(C)n2)C1 | 2.5
4 | Cc1nn([C@H]2CCCN(C(=O)CO)C2)cc1-c1cc(Sc2ccccc2C#N)c2c(C#N)cnn2c1 | 2.5

The structures given here were assigned with low confidence; some may be wrong.
